{"sequences": {"note": "Chains of the proteins cited; added tags and fusions are not shown. Lines headed by an entry give the natural chain unless they say otherwise; changes in a name come on top.", "UniProt Q9UNA4": "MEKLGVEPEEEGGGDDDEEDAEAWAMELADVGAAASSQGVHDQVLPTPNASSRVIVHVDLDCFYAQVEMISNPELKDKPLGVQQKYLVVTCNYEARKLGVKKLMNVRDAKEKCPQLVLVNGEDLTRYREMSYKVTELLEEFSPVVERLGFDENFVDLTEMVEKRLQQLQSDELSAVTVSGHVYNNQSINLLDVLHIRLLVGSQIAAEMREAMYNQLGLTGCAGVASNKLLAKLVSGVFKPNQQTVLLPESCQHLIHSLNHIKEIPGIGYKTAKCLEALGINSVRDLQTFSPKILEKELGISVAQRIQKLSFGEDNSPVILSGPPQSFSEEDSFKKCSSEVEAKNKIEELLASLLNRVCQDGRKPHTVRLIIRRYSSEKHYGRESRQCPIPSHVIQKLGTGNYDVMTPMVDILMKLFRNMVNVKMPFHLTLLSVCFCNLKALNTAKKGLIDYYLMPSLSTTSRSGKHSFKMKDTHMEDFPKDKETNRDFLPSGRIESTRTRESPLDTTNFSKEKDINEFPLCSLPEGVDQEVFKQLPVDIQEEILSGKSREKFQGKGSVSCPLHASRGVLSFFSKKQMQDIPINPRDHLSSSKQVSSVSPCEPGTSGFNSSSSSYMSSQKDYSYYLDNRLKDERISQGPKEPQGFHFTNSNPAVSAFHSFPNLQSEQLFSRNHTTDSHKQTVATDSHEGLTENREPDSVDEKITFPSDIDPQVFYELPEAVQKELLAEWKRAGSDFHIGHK"}, "source": "PubChem BioAssay AID588590", "about": "(National Center for Advancing Translational Sciences (NCATS), 2011)", "note": "The whole screen tested about 390,000 compounds, of which about 4,000 (1%) were called active. Inconclusive means that the source gave no clear call. Such entries were picked first, then a sample of the others. The call rests on the fitted dose curve; in most records, active means well fitted inhibition curve with a large enough effect; inconclusive means small, poorly fitted or top-dose-only effect, or another doubt; inactive means no such curve, though single readings can be large or run the other way. Potencies of inconclusive entries are doubtful fits and often do not repeat. Potency means the concentration at half of the fitted maximal effect."}
{"molecular_target": "DNA polymerase iota (Homo sapiens) (UniProt Q9UNA4)", "assay": "qHTS for Inhibitors of Polymerase Iota", "settings": "Pol iota fluorescent replication assay, 10 min; series mostly up to 115 µM", "outline": "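Fluorescent replication assay read twice, at 0 min and 10 min after adding 50 nM (final) substrate. Enzyme (10 nM) and compounds were first incubated 15 min at room temperature; enzyme-free buffer wells were negative controls.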"}
{"smiles": "CCOc1ccc(-c2n[nH]c(C)c2-c2ccccc2OC)c(O)c1", "Potency": "inactive"}
{"smiles": "O=C(c1cccnc1NCc1ccccc1)N1CCOCC1", "Potency": "inconclusive: 35.5 µM [inhibitor, single point]"}
{"smiles": "Clc1ccc(N=c2ssnc2Cl)cc1", "Potency": "inconclusive: 25.1 µM [inhibitor, partial curve]"}
{"smiles": "CCc1cnc2c(c1SCC(=O)Nc1ccc(OC)c(OC)c1)c(=O)n(C)c(=O)n2C", "Potency": "inactive"}
{"smiles": "Cc1ccc2nc(NC(=S)NC(=O)c3ccco3)sc2c1", "Potency": "inconclusive: 25.1 µM [inhibitor, full curve, poor fit]"}
{"smiles": "COc1cc(C2CC(=O)N3CN(Cc4ccccc4)CSC3=C2C#N)ccc1OCc1ccccc1", "note": "(stereo unspecified)", "Potency": "inconclusive: 3.16 µM [inhibitor, single point]"}
{"smiles": "O=C(CCCn1c(=S)[nH]c2cc3c(cc2c1=O)OCO3)NCc1ccccc1Cl", "Potency": "inactive"}
{"smiles": "CCSc1nc2c(c(=O)n(C)c(=O)n2C)n1Cc1ccc(Cl)cc1", "Potency": "inactive"}
{"smiles": "COc1ccc(S(=O)(=O)/N=C2/NC(=O)/C(=C\\c3ccco3)S2)cc1", "Potency": "inconclusive: 112 µM [inhibitor, single point]"}
{"smiles": "Cc1ccc(S(=O)(=O)CCC(=O)OCC(=O)Nc2cc(C)on2)cc1", "Potency": "inconclusive: 31.6 µM [inhibitor, single point]"}
{"smiles": "CC(C)Oc1ccc(C(=O)Nc2nnc(C3=COCCO3)o2)cc1", "Potency": "inactive"}
{"smiles": "CCCc1nc2c(ccc3ccccc32)cc1CC", "Potency": "inactive"}
{"smiles": "CN(C)C(=O)NC(Nc1ccc(Cl)cc1Cl)C(Cl)(Cl)Cl", "note": "(stereo unspecified)", "Potency": "inconclusive: 50.1 µM [inhibitor, partial curve, poor fit]"}
{"smiles": "O=C(N/N=C\\c1ccc([N+](=O)[O-])o1)C1COc2ccccc2O1", "note": "(stereo unspecified)", "Potency": "inconclusive: 20 µM [inhibitor, partial curve, poor fit]"}
{"smiles": "CCC(CC)NC(=O)C1CCN(c2ccc(S(=O)(=O)N3CCOCC3)cc2[N+](=O)[O-])CC1", "Potency": "inconclusive: 89.1 µM [inhibitor, single point]"}
{"smiles": "COc1cc(C)ccc1OCCOCCOc1cc(C)c(C)cc1Br", "Potency": "active: 100 µM"}
{"smiles": "CCOC(=O)N1CCc2c(sc3c2c(=O)n(-c2ccc(CC)cc2)c(=O)n3Cc2cccc(OC)c2)C1", "Potency": "inconclusive: 89.1 µM [inhibitor, single point]"}
{"smiles": "CC(=O)Nc1ccc(Nc2nc(-c3cc4ccccc4oc3=O)cs2)cc1", "Potency": "inactive"}
{"smiles": "S=c1[nH]c(-c2ccccc2)cs1", "Potency": "inactive"}
{"smiles": "CCc1ccc(C2NC(=S)NC3=C2C(=O)N(c2ccccc2OC)C(c2ccc(CC)cc2)N3)cc1", "note": "(stereo unspecified)", "Potency": "inconclusive: 28.2 µM [inhibitor, partial curve]"}
{"smiles": "CC(=O)Nc1cccc(NC(=O)Cc2csc(COc3cccc(C)c3)n2)c1", "Potency": "inactive"}
{"smiles": "O=C(Cn1cc(COc2cccc([N+](=O)[O-])c2)nn1)c1ccc(O)cc1", "Potency": "inconclusive: 3.98 µM [inhibitor, partial curve, poor fit]"}
{"smiles": "COc1c(Cl)cc(C(=O)Nc2ccccc2C(=O)O)cc1Cl", "Potency": "inconclusive: 79.4 µM [inhibitor, single point]"}
{"smiles": "Cc1ccc(C)c(S(=O)(=O)n2nc(C)c(S(=O)(=O)N3CCC(C)CC3)c2C)c1", "Potency": "inconclusive: 89.1 µM [inhibitor, single point]"}
{"smiles": "Cn1cnnc1Sc1nc2ccccc2nc1NS(=O)(=O)c1ccccc1", "Potency": "inconclusive: 39.8 µM [inhibitor, single point]"}
{"smiles": "O=[N+]([O-])c1ccccc1N/N=C/c1cccc(O)c1O", "Potency": "inconclusive: 56.2 µM [inhibitor, partial curve, poor fit]"}
{"smiles": "CC(C)=NNc1nc2c(c(=O)[nH]c(=O)n2C)n1CCc1ccccc1", "Potency": "inconclusive: 20 µM [inhibitor, partial curve, poor fit]"}
{"smiles": "O=c1oc2ccccc2c(O)c1Sc1c(O)c2ccccc2oc1=O", "Potency": "inconclusive: 31.6 µM [inhibitor, single point]"}
{"smiles": "CSc1ccc(CNC2CC2)cc1", "Potency": "inconclusive: 70.8 µM [inhibitor, partial curve, poor fit]"}
{"smiles": "CCOC(=O)Cc1cc(=O)n2[nH]c(-c3ccc(Cl)cc3)cc2n1", "Potency": "inconclusive: 35.5 µM [inhibitor, partial curve, poor fit]"}
{"smiles": "COc1ccc(-c2nc3sc(CCNS(=O)(=O)c4c(C)cc(C)cc4C)c(C)n3n2)cc1", "Potency": "inactive"}
{"smiles": "O=C(O)c1cccc(-n2cccc2/C=C2/NC(=O)N(Cc3ccccc3F)C2=O)c1", "Potency": "active: 31.6 µM"}
{"smiles": "O=C(/C=C/c1cn(-c2ccccc2)nc1-c1ccccc1)Nc1ccc(C(=O)O)cc1", "Potency": "inconclusive: 56.2 µM [inhibitor, partial curve, poor fit]"}
{"smiles": "CN(C)CCSc1nnc(-c2ccccc2)o1", "Potency": "inconclusive: 100 µM [inhibitor, single point]"}
{"smiles": "CN(CC(=O)NC1CCCC1)S(=O)(=O)c1cnc[nH]1", "Potency": "inconclusive: 89.1 µM [inhibitor, single point]"}
{"smiles": "COC(=O)c1c(-c2ccsc2)sc2ccc(-c3cc(OC)c(OC)c(OC)c3)cc12", "Potency": "inconclusive: 35.5 µM [inhibitor, single point]"}
{"smiles": "CCCOc1ccc(-c2cccc(NS(=O)(=O)c3ccc(CC)cc3)c2)nn1", "Potency": "inactive"}
{"smiles": "COc1cc2c(C(=O)N3CCN(c4cc(Cl)ccc4C)CC3)cn(CC(C)C)c(=O)c2cc1OC", "Potency": "inconclusive: 31.6 µM [inhibitor, single point]"}
{"smiles": "COc1ccc(S(=O)(=O)NCCc2sc(-c3cccc(F)c3)nc2C)cc1", "Potency": "inactive"}
{"smiles": "CCCCCCCNC1=CC(=O)CC(c2ccco2)C1", "note": "(stereo unspecified)", "Potency": "inconclusive: 20 µM [inhibitor, full curve, poor fit]"}
{"smiles": "COC1=CC(=O)CC(C)C12Oc1cc(OC)cc(OC)c1C2=O", "note": "(stereo unspecified)", "Potency": "inconclusive: 39.8 µM [inhibitor, partial curve, poor fit]"}
{"smiles": "COc1cc(/C=C2/C(=O)NN(c3cccc(C)c3)C2=O)cc([N+](=O)[O-])c1O", "Potency": "inconclusive: 22.4 µM [inhibitor, full curve, poor fit]"}
{"smiles": "Cc1ccc(-c2nn3c(=O)cc(CN4CCN(C(=O)c5ccc(C(C)(C)C)cc5)CC4)nc3s2)cc1", "Potency": "inactive"}
{"smiles": "O=C(O)CC(Sc1n[nH]c(=S)s1)C(=O)O", "note": "(stereo unspecified)", "Potency": "inconclusive: 22.4 µM [inhibitor, single point]"}
{"smiles": "c1cnc(N2CCN(Cc3ccc4c(c3)OCO4)CC2)nc1", "Potency": "inactive"}
{"smiles": "C(=N\\Nc1nc(N2CCOCC2)nc(N2CCOCC2)n1)/c1cccnc1", "Potency": "inconclusive: 112 µM [inhibitor, single point]"}
{"smiles": "COc1ccccc1N1CCN(C2CC(=O)N(c3cccc(Br)c3)C2=O)CC1", "note": "(stereo unspecified)", "Potency": "inconclusive: 25.1 µM [inhibitor, partial curve, poor fit]"}
{"smiles": "CCN(CC)CCOC(=O)c1ccc(NC(=O)c2cc3cccc(OC)c3oc2=O)cc1", "Potency": "inconclusive: 89.1 µM [inhibitor, single point]"}
{"smiles": "CCCc1c(C(=O)N/N=C/C(C)=C/c2ccco2)nnn1-c1nonc1N", "Potency": "inconclusive: 39.8 µM [inhibitor, partial curve]"}
{"smiles": "CCOC(=O)c1cccc(NC(=O)CSc2nnnn2CC)c1", "Potency": "inconclusive: 39.8 µM [inhibitor, single point]"}
{"smiles": "CC1CCN(c2c(NCc3ccc(C(=O)NCCc4ccc(Cl)cc4)cc3)c(=O)c2=O)CC1", "Potency": "inconclusive: 35.5 µM [inhibitor, partial curve, poor fit]"}
{"smiles": "COC(=O)CSc1nc2c(c(-c3ccc(O)cc3)c1C#N)CCCC2", "Potency": "inactive"}
{"smiles": "CCOc1ccc(NC(=O)Cn2nnc(C(=O)NCc3ccccc3OC)c2N)cc1", "Potency": "inconclusive: 112 µM [inhibitor, single point]"}
{"smiles": "CCOc1ccc2nc(NC(=O)c3ccoc3C)sc2c1", "Potency": "inconclusive: 39.8 µM [inhibitor, single point]"}
{"smiles": "O=C(CSc1nc(-c2ccccc2)c(-c2ccccc2)[nH]1)Nc1nccs1", "Potency": "inconclusive: 35.5 µM [inhibitor, full curve, poor fit]"}
{"smiles": "CCCCNC(=O)c1onc(CSc2cc(C)cc(C)c2)c1C(=O)NCCCC", "Potency": "inconclusive: 12.6 µM [inhibitor, partial curve, poor fit]"}
{"smiles": "COc1ccc(C(=O)NC2CCN(S(=O)(=O)c3ccccc3F)CC2)cc1", "Potency": "inconclusive: 100 µM [inhibitor, single point]"}
{"smiles": "COc1ccc(S(=O)(=O)NCCc2sc(-c3ccccc3)nc2C)cc1F", "Potency": "inactive"}
{"smiles": "Cc1sc2nc(CSc3nnnn3-c3ccc(Cl)cc3)[nH]c(=O)c2c1C", "Potency": "inconclusive: 14.1 µM [inhibitor, partial curve, poor fit]"}
{"smiles": "CN(CCC#N)C(=O)COC(=O)c1c2c(nc3ccccc13)/C(=C/c1ccco1)CC2", "Potency": "active: 3.16 µM"}
{"smiles": "Cc1ccc(NC(=O)c2cc(=O)n(Cc3ccccc3)c(=O)[nH]2)cc1C", "Potency": "inconclusive: 31.6 µM [inhibitor, single point]"}
{"smiles": "CN(C)C(=O)c1cc(C(=O)Cc2ccccc2)c[nH]1", "Potency": "inconclusive: 5.62 µM [inhibitor, partial curve]"}
{"smiles": "CCC1=NN2C(=N)/C(=C\\c3ccc(SCc4ccco4)o3)C(=O)N=C2S1", "Potency": "active: 22.4 µM"}
{"smiles": "COC(=O)N1CCCc2cc(C)ccc21", "Potency": "inconclusive: 2.82 µM [inhibitor, full curve, poor fit]"}
{"smiles": "COc1ccccc1N1CCN(S(=O)(=O)c2ccc3c(c2)NC(=O)C(C)C(=O)N3)CC1", "note": "(stereo unspecified)", "Potency": "inconclusive: 15.8 µM [inhibitor, single point]"}
{"smiles": "N=c1c(S(=O)(=O)c2ccc(Cl)cc2)cc2c(=O)n3ccccc3nc2n1Cc1ccco1", "Potency": "inconclusive: 11.2 µM [inhibitor, full curve]"}
